Experimental data: PubChem BioAssay AID1259308 (NCATS, 2017)

- Aim: 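Genes whose loss raises luciferase production in HEK293 cells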 (primary screen)
- Cell system: human HEK293 embryonic kidney cells stably expressing firefly luciferase (HEK-CMV-Luc2-Hygro)
- Knock-down reagent: single siRNA against human genes, 0.8 pmol siRNA per well
- Time to read-out: 72 h
- Measured: 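Reporter luminescence and viable-cell signal on separate replicate plates, given as percent of non-targeting control and median/MAD z-scores, plus per-cell luciferase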
- Scale: total luciferase, z-score and total luciferase, % of control: higher = more reporter protein produced; luciferase per cell, z-score: higher = more reporter output per viable cell; viable cells, % of control: higher = more viable cells
- Rule for the call: 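Active when the median/MAD z-score for overall luciferase is greater than 3; a gene was taken forward for validation with new siRNAs if at least two of its three siRNAs passed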
- Calls: active = raised luciferase; inactive = no rise
The whole screen tested about 59,000 reagents; this is an unselected part. About 1,510 of them (2.6%) count as active. 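Calls use total luciferase alone and ignore viability, so some active siRNAs may act by altering cell number.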 Unmarked entries are inactive. Reagents against one gene are numbered here.

gene knocked down	reagent	total luciferase, z-score	total luciferase, % of control	luciferase per cell, z-score	viable cells, % of control
TULP2 (TUB like protein 2)	1	1.81	118	1.01	101
TULP2 (TUB like protein 2)	2	2.44	130	2.27	80.2
TULP2 (TUB like protein 2)	3	-0.575	70.4	-0.235	83.7
ACADL (acyl-CoA dehydrogenase long chain)	1	-0.233	77.2	-0.951	111
ACADL (acyl-CoA dehydrogenase long chain)	2	0.621	94.2	0.406	94.6
ACADL (acyl-CoA dehydrogenase long chain)	3	-0.15	78.9	-0.965	114
CD1E (CD1e molecule)	1	0.49	91.6	-0.252	109
CD1E (CD1e molecule)	2	-0.43	73.3	-0.696	98.4
CD1E (CD1e molecule)	3	1.42	110	1.24	88.9
OTC (ornithine transcarbamylase)	1	-0.505	71.8	-0.217	85
OTC (ornithine transcarbamylase)	2	-0.517	71.6	-0.822	99.3
OTC (ornithine transcarbamylase)	3	2.48	131	2.67	72.6
LPGAT1 (lysophosphatidylglycerol acyltransferase 1)	1	-0.302	75.9	-0.866	107
LPGAT1 (lysophosphatidylglycerol acyltransferase 1)	2	-2.36	34.9	-1.28	54.6
LPGAT1 (lysophosphatidylglycerol acyltransferase 1)	3	-0.0286	81.3	-0.228	96.5
C1RL-AS1 (C1RL antisense RNA 1)	1	1.53	112	1.2	91.6
C1RL-AS1 (C1RL antisense RNA 1)	2	-0.573	70.5	-0.73	95.4
C1RL-AS1 (C1RL antisense RNA 1)	3	-0.342	75.1	-0.149	87.3
CDK2AP1 (cyclin dependent kinase 2 associated protein 1)	1	0.813	98.1	1.02	83.7
CDK2AP1 (cyclin dependent kinase 2 associated protein 1)	2	0.563	93.1	-0.331	113
CDK2AP1 (cyclin dependent kinase 2 associated protein 1)	3	-0.292	76.1	-0.8	105
BAX (BCL2 associated X, apoptosis regulator)	1	0.322	88.3	0.631	83.5
BAX (BCL2 associated X, apoptosis regulator)	2	1.04	103	0.07	112
BAX (BCL2 associated X, apoptosis regulator)	3	0.184	85.6	-0.0481	96.8
HEY2	1	-2.34	35.4	-3.14	90.5
HEY2	2	-0.298	76	0.0689	83.4
HEY2	3	-0.864	64.7	-1.14	97.7
MTNR1B (melatonin receptor 1B)	1	-0.33	75.3	0.442	74.9
MTNR1B (melatonin receptor 1B)	2	0.199	85.9	-0.205	101
MTNR1B (melatonin receptor 1B)	3	-0.18	78.3	-0.0984	89.8
NUP155 (nucleoporin 155)	1	-0.346	75	-0.277	90.2
NUP155 (nucleoporin 155)	2	-1.17	58.5	-0.583	76.3
NUP155 (nucleoporin 155)	3	-0.73	67.4	-0.311	81.7

Next part; the last 7 above are carried over.
gene knocked down	reagent	total luciferase, z-score	total luciferase, % of control	luciferase per cell, z-score	viable cells, % of control
HEY2	3	-0.864	64.7	-1.14	97.7
MTNR1B (melatonin receptor 1B)	1	-0.33	75.3	0.442	74.9
MTNR1B (melatonin receptor 1B)	2	0.199	85.9	-0.205	101
MTNR1B (melatonin receptor 1B)	3	-0.18	78.3	-0.0984	89.8
NUP155 (nucleoporin 155)	1	-0.346	75	-0.277	90.2
NUP155 (nucleoporin 155)	2	-1.17	58.5	-0.583	76.3
NUP155 (nucleoporin 155)	3	-0.73	67.4	-0.311	81.7
LANCL3 (LanC like family member 3)	1	-1.73	47.5	-1.86	86.6
LANCL3 (LanC like family member 3)	2	0.901	99.8	0.553	96.4
LANCL3 (LanC like family member 3)	3	0.919	100	1.23	80.9
NPHP3 (nephrocystin 3)	1	0.26	87.1	-0.245	104
NPHP3 (nephrocystin 3)	2	-1.69	48.3	-2.35	100
NPHP3 (nephrocystin 3)	3	0.364	89.1	-0.128	103
DNAH3 (dynein axonemal heavy chain 3)	1	1.31	108	0.932	94.4
DNAH3 (dynein axonemal heavy chain 3)	2	-1.47	52.7	-1.57	89
DNAH3 (dynein axonemal heavy chain 3)	3	-0.139	79.1	-0.0689	90
SYNCRIP (synaptotagmin binding cytoplasmic RNA interacting protein)	1	-1.87	44.6	-2.4	93.7
SYNCRIP (synaptotagmin binding cytoplasmic RNA interacting protein)	2	-0.969	62.6	-0.154	72.9
SYNCRIP (synaptotagmin binding cytoplasmic RNA interacting protein)	3	-0.317	75.6	-0.337	92.3
TERF1 (telomeric repeat binding factor 1)	1	-0.178	78.3	0.819	70.6
TERF1 (telomeric repeat binding factor 1)	2	-0.23	77.3	-0.504	98.6
TERF1 (telomeric repeat binding factor 1)	3	-0.147	79	-0.285	95.1
CIRSR (corepressor of RBPJ and splicing regulator)	1	-0.152	78.9	-0.316	95.8
CIRSR (corepressor of RBPJ and splicing regulator)	2	-0.0621	80.7	-0.27	96.8
CIRSR (corepressor of RBPJ and splicing regulator)	3	-0.173	78.5	-0.17	91.7
NGB (neuroglobin)	1	0.0736	83.4	-0.446	105
NGB (neuroglobin)	2	4.92 (active)	180	3.39	82.3
NGB (neuroglobin)	3	-1.25	57	-0.232	67.7
NGB (neuroglobin)	4	0.723	96.3	0.894	85
NGB (neuroglobin)	5	-1.33	55.5	-1.23	85.7
NGB (neuroglobin)	6	0.7	95.8	1.13	79.5
